Laboratory results as given in patent US10378034B2, “Use of a N-acetylneuraminate lyase derived from the bacterium Aliivibrio salmonicida in the production of neuraminic acid and derivatives thereof” (Universitetet i Tromsø-Norges Arktiske Universitet, priority 2014, dated 2019).
At least one read-out could not be matched to a standard name with certainty.

Experiment: LDH-coupled continuous assay, kinetics of cleavage reaction
Assay type: biochemical
Settings: substrate Neu5Ac, 37° C., Tris-HCl pH 8.5

B1: AsNAL: N-acetylneuraminate lyase isolated from the psychrophilic bacterium Aliivibrio salmonicida LFI1238, recombinantly expressed in E. coli (protein, listed as Aliivibrio salmonicida)
chain: MKKLTGLIAAPHTPFDSSSNVNFEEIDKIAKHLINDGVKGIYVCGTTGEGIHCSVEERKAIAERWVSACNHKLDIIVHTGALSIVDTLELTRHADTLDILATSAIGPCFFKPGSVSDLVEYCATIAAAAPSKGFYYYHSGMSGVNLNMEEFLIQADKRIPNLSGLKFNSGDLYEYQRCLRACDGKFDVPFGVDEFLPGALAVGAKSAVGSTYNYAAPHFNSIIEAFNKGDHDAVFNKMTNVIELIRVLVEFGGVAAGKIAMELHDINAGDPRLPLMPLSAEQKLTVVEKMRAANFLK
B1 gave a kcat/KM of 21.27 mM⁻¹ min⁻¹.
